In the supplement of paper PMC10849652:
The list shows a part of the results.

Protein sequences, listed by entry. Tags and fused reporters are not part of them. Lines headed by an entry give the natural chain unless they say otherwise; changes in a name come on top.
UniProt O75688: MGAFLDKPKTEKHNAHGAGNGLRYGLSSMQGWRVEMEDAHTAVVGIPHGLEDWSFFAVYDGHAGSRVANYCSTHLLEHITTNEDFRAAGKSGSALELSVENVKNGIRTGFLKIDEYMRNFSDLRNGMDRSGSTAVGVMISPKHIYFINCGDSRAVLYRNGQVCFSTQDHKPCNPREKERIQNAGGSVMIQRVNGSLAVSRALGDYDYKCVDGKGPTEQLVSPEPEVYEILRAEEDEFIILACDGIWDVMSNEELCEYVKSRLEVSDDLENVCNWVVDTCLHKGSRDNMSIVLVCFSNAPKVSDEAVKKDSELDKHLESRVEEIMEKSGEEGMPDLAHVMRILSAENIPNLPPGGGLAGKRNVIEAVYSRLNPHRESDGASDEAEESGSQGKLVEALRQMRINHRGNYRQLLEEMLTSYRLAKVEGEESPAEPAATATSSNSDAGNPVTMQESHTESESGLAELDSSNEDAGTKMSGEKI
POLG, A0A3B3IS91, UniProt A0A3B3IS91, whole entry, looked up: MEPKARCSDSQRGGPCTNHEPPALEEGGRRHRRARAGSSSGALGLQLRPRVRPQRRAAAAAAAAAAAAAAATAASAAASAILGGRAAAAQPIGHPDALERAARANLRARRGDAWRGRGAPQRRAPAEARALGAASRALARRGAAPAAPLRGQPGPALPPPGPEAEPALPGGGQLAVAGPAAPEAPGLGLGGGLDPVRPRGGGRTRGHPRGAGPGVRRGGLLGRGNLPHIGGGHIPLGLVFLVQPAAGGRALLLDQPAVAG
UniProt Q8IYS1: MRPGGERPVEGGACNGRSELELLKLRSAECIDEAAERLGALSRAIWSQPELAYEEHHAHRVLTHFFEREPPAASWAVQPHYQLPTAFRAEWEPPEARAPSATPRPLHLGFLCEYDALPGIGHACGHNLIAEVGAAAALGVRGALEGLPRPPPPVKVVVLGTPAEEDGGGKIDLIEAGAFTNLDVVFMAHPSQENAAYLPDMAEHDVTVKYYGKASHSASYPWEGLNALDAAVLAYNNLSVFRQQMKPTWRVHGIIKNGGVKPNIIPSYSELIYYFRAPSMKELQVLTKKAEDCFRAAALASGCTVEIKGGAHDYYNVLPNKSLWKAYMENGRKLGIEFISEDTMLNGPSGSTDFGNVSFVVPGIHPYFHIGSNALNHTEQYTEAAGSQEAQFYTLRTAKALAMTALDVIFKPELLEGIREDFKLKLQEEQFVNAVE
UniProt O75145: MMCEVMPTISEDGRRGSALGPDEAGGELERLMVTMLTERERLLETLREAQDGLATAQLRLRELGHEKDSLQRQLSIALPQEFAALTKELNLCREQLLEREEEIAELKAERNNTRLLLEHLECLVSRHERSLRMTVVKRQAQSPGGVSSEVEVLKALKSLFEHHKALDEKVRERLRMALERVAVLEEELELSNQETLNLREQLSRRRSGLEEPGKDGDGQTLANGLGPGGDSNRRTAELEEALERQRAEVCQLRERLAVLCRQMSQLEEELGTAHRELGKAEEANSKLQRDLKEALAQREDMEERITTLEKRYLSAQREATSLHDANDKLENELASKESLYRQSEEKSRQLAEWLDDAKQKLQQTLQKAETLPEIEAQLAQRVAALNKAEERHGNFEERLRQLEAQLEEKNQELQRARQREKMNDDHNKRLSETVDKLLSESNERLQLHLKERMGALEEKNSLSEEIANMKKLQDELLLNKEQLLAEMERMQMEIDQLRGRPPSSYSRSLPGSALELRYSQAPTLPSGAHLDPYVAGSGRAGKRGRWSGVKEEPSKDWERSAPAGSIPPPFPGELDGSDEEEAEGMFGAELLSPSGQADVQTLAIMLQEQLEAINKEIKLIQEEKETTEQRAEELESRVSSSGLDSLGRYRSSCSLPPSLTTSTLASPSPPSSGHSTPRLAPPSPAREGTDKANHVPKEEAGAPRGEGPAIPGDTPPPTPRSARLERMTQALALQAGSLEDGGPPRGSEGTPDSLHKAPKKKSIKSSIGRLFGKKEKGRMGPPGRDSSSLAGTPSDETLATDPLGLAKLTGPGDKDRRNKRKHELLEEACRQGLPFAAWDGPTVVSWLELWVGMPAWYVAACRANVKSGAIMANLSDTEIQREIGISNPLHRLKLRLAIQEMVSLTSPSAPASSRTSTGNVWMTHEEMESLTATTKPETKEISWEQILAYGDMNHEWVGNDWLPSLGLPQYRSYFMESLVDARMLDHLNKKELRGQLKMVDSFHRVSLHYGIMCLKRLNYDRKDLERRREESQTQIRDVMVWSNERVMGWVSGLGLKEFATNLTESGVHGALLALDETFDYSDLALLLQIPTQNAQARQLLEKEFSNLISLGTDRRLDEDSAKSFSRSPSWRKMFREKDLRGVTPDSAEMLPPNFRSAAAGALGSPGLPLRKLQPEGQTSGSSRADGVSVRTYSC
UniProt P56282: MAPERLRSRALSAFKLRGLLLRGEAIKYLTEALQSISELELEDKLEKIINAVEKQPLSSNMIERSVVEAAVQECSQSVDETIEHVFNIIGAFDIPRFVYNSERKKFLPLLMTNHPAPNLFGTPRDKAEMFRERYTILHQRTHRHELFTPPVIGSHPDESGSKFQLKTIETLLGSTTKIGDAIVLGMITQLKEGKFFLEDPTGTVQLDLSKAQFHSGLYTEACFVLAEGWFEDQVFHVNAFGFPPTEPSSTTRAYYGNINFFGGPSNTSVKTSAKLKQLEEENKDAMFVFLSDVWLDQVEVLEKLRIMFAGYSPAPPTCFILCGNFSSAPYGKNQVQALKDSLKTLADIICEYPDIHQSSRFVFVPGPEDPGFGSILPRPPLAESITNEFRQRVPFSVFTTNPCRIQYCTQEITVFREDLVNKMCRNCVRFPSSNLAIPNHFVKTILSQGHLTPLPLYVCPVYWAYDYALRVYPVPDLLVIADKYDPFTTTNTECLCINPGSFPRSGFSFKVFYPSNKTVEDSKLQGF
UniProt O00469: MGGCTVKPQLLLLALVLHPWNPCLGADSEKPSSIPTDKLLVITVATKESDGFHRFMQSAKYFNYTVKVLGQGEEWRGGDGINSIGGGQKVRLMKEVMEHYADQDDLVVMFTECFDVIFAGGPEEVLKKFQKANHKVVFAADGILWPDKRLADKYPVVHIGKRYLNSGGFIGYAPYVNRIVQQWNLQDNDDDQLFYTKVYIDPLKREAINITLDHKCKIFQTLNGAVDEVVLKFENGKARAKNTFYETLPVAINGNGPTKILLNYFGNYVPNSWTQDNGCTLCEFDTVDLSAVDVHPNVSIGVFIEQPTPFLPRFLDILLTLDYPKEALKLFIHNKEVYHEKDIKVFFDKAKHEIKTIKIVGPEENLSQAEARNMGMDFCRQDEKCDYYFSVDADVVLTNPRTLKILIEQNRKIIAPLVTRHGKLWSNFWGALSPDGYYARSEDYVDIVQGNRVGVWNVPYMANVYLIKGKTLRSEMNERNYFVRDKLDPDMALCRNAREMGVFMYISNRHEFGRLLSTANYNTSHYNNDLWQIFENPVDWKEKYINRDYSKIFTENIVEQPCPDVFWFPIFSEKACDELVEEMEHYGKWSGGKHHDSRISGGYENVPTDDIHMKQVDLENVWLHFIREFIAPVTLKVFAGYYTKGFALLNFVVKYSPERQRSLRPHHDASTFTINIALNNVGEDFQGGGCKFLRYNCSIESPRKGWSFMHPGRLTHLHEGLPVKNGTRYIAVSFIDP
UniProt Q9NRY6: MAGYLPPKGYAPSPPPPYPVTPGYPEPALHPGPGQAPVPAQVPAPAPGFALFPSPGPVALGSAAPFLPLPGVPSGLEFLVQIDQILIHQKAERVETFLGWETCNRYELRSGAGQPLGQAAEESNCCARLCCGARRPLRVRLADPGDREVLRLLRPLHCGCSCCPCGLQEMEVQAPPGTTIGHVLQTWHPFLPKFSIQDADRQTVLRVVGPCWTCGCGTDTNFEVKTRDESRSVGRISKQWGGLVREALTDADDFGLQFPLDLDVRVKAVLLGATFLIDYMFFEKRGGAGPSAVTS
UniProt Q9NW61: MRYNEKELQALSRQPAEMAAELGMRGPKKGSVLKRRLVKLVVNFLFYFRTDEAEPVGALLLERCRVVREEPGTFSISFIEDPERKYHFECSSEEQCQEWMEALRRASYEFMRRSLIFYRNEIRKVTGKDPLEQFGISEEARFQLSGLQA
UniProt O00411: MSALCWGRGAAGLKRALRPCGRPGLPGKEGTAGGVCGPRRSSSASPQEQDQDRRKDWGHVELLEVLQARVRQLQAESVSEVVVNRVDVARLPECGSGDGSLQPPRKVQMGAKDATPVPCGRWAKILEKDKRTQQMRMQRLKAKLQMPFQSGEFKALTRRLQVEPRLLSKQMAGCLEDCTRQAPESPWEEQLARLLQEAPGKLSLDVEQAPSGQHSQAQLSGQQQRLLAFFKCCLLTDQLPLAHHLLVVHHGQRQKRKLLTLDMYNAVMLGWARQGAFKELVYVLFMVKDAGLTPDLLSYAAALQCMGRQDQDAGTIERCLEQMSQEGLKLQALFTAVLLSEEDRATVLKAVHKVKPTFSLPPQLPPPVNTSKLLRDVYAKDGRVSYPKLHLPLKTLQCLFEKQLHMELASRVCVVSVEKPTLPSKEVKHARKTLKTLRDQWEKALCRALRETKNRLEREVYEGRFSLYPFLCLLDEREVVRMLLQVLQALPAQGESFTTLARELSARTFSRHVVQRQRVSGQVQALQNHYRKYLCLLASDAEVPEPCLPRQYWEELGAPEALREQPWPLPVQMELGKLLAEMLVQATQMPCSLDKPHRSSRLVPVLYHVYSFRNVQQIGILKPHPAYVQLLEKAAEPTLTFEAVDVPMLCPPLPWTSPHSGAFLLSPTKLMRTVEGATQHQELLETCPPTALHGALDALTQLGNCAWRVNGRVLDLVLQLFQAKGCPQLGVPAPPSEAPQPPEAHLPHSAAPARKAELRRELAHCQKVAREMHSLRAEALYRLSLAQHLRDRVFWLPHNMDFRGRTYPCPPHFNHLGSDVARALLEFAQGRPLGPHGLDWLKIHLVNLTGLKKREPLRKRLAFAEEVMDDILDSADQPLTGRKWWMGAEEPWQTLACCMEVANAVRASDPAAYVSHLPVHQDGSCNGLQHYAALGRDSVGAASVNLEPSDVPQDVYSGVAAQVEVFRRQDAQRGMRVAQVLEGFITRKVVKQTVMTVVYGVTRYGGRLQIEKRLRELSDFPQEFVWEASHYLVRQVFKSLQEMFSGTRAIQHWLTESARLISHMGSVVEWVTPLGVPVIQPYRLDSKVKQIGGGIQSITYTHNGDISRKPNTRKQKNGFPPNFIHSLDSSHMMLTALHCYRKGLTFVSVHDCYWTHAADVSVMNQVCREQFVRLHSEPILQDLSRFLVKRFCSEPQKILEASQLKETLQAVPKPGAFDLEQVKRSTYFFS
UniProt Q9BT43: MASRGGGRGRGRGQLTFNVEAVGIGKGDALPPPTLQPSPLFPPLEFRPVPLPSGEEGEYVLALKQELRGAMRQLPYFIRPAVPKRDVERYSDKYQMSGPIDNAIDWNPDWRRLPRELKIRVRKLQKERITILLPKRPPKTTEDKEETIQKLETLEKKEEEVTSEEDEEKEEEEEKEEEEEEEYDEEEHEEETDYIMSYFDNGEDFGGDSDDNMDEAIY
UniProt Q8NBT0: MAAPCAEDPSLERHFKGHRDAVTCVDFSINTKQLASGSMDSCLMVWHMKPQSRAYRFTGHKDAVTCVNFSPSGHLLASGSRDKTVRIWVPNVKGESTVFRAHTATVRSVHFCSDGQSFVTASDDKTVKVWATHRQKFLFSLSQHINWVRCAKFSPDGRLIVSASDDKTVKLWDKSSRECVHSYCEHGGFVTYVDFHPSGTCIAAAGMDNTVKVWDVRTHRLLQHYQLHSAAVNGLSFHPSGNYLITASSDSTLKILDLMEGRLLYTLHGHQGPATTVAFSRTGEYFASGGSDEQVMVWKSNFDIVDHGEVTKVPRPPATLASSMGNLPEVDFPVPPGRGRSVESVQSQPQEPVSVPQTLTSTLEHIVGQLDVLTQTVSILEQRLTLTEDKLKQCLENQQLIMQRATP

What was measured:
Assay in all cases: log2 fold change, soluble protein after heating vs DMSO (PISA); higher = thermal stabilisation; K562 cells, 10 uM, 30 min; active = over 0.2 and 3.5 SD of the protein, either way, in both replicates (recomputed)
[1] = compound: Cc1cccc(CC(=O)N2CCc3c2ccc(-c2cn(C)c4ncnc(N)c24)c3F)n1
Method in brief: (§1)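 For each measurement, 10 μM compound was applied for 30 min to K562 cells at 2×10^6 cells/mL. Aliquots were heated for 3 min across 48°C-58°C, pooled, and extracted in PBS with 0.5% NP-40 at 4°C; the supernatant after 21,000xg for 90 min was soluble protein. This was quantified by TMTpro 16plex LC-MS/MS with channel sums equalised, and thermal stability was reported relative to control samples from duplicates, on a log2 fold-change scale.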

nilotinib = compound: Cc1cn(-c2cc(NC(=O)c3ccc(C)c(Nc4nccc(-c5cccnc5)n4)c3)cc(C(F)(F)F)c2)cn1 [nilotinib]
Method in brief: as §1

[2] = compound: Cc1nc(Nc2n[nH]c3c2CN(C(=O)N[C@H](CN(C)C)c2ccccc2)C3(C)C)c2sccc2n1
Method in brief: as §1

dasatinib = compound: Cc1nc(Nc2ncc(C(=O)Nc3c(C)cccc3Cl)s2)cc(N2CCN(CCO)CC2)n1 [dasatinib]
Method in brief: as §1

[3] = compound: Cc1ncc(-c2ccnc(Nc3ccc(S(C)(=O)=O)cc3)n2)n1C(C)C
Method in brief: as §1

[4] = compound: Cn1cc(-c2ccc3c(c2)CCN3C(=O)Cc2cccc(C(F)(F)F)c2)c2c(N)ncnc21
Method in brief: as §1

[5] = compound: Cn1cc(-c2ccc3nnc(C(F)(F)c4ccc5ncccc5c4)n3n2)cn1
Method in brief: as §1

mubritinib = compound: FC(F)(F)c1ccc(/C=C/c2nc(COc3ccc(CCCCn4ccnn4)cc3)co2)cc1 [mubritinib]
Method in brief: as §1

[6] = compound: NC(=O)Nc1cc(-c2cccc(F)c2)sc1C(=O)N[C@H]1CCCNC1
Method in brief: as §1

[7] = compound: NC1(c2ccc(-c3nc4ccn5c(=O)[nH]nc5c4cc3-c3ccccc3)cc2)CCC1
Method in brief: as §1

[8] = compound: NCC(=O)Nc1ccc(-n2nc(C(F)(F)F)cc2-c2ccc3c(ccc4ccccc43)c2)cc1
Method in brief: as §1

entinostat = compound: Nc1ccccc1NC(=O)c1ccc(CNC(=O)OCc2cccnc2)cc1 [entinostat]
Method in brief: as §1

vorinostat = compound: O=C(CCCCCCC(=O)Nc1ccccc1)NO [vorinostat]
Method in brief: as §1

silmitasertib = compound: O=C(O)c1ccc2c(c1)nc(Nc1cccc(Cl)c1)c1ccncc12 [silmitasertib]
Method in brief: as §1

[9] = compound: O=C1NC(=O)C(c2cnc3ccccn23)=C1c1cn2c3c(cc(F)cc13)CN(C(=O)N1CCCCC1)CC2
Method in brief: as §1

bafetinib = compound: Cc1ccc(NC(=O)c2ccc(CN3CC[C@H](N(C)C)C3)c(C(F)(F)F)c2)cc1Nc1nccc(-c2cncnc2)n1 [bafetinib]
Method in brief: as §1

tipifarnib = compound: Cn1cncc1[C@@](N)(c1ccc(Cl)cc1)c1ccc2c(c1)c(-c1cccc(Cl)c1)cc(=O)n2C [tipifarnib]
Method in brief: as §1

[10] = compound: NC(=O)c1cnc(N[C@@H]2CCCC[C@@H]2N)nc1Nc1cccc(-n2nccn2)c1
Method in brief: as §1

citarinostat = compound: O=C(CCCCCCNC(=O)c1cnc(N(c2ccccc2)c2ccccc2Cl)nc1)NO [citarinostat]
Method in brief: as §1

[11] = compound: c1cc(OCCN2CCCCC2)cc(-c2n[nH]c3ccc(-c4nnc[nH]4)cc23)c1
Method in brief: as §1

Measured: log2 fold change

POLR1B isoform 3 (UniProt Q9H9Y6)
inactive: [1] 0 | nilotinib -0.256 | [2] -0.025 | dasatinib -0.029 | [3] -0.295 | [4] -0.13 | [5] -0.24 | mubritinib -0.093 | [6] 0.05 | [7] 0.1 | [8] 0.031 | entinostat -0.058 | vorinostat 0.131 | silmitasertib 0.007 | [9] -0.07

PPM1B isoform 2 (UniProt O75688)
inactive: bafetinib -0.011 | mubritinib 0.184 | [7] -0.052 | silmitasertib -0.021

POLR1E isoform 1 (UniProt Q9GZS1)
inactive: dasatinib -0.05 | [5] -0.126 | tipifarnib 0.207 | mubritinib -0.178 | [10] 0.098 | [7] -0.053 | [8] -0.376 | silmitasertib 0.017

POMT1 (UniProt Q9Y6A1)
inactive: dasatinib 0.013 | mubritinib 0.025 | [10] -0.112 | [7] 0.065 | [8] 0.011 | silmitasertib -0.252 | [9] 0.089

POLG, A0A3B3IS91
inactive: dasatinib 0.044 | mubritinib -0.106 | [7] 0.062 | silmitasertib -0.176

PMS2 (UniProt P54278)
inactive: dasatinib 0.044 | [4] 0.167 | [5] -0.111 | [6] -0.072 | [10] -0.296 | [8] -0.156 | entinostat 0.015 | citarinostat -0.186 | [9] -0.141 | [11] 0.241

PLXNB1 (UniProt O43157)
inactive: [6] -0.216 | [10] -0.045 | entinostat -0.105 | [9] 0.071

PLPPR3 isoform 3 (UniProt Q6T4P5)
inactive: [1] -0.484 | [4] 0.044 | [5] 0.034 | vorinostat -0.007 | [9] -0.046

PPIG (UniProt Q13427)
inactive: bafetinib 0.193 | dasatinib -0.008 | [5] -0.199 | tipifarnib -0.088 | mubritinib -0.134 | [7] 0.153 | silmitasertib 0

PM20D2 (UniProt Q8IYS1)
inactive: dasatinib -0.082 | [5] -0.033 | [6] -0.004 | entinostat 0.051

PPFIA3 (UniProt O75145)
inactive: [4] 0.045 | [9] 0.37

POLE2 (UniProt P56282)
inactive: [1] -0.031 | [5] -0.013 | vorinostat -0.076

PLOD2 isoform 2 (UniProt O00469)
inactive: dasatinib 0.088 | tipifarnib -0.243 | mubritinib 0.02 | [7] -0.087 | citarinostat 0.093 | silmitasertib -0.006 | [11] -0.01

PLSCR3 (UniProt Q9NRY6)
inactive: [1] -0.02 | nilotinib 0.097 | [2] -0.101 | [3] -0.079 | [4] 0.067 | [10] 0.156 | vorinostat -0.045

PLXND1 (UniProt Q9Y4D7)
inactive: bafetinib 0.139 | dasatinib -0.08 | [5] 0.155 | mubritinib 0.104 | [10] 0.018 | [7] -0.131 | [8] -0.187 | citarinostat -0.098 | silmitasertib -0.033 | [11] -0.296

POLR2L (UniProt P62875)
inactive: [1] 0.075 | nilotinib -0.023 | [2] 0.014 | dasatinib -0.08 | [3] 0.126 | [4] -0.133 | [5] -0.04 | tipifarnib -0.112 | mubritinib -0.065 | [6] -0.082 | [10] 0.036 | [7] -0.15 | [8] -0.133 | entinostat 0.07 | vorinostat -0.165 | citarinostat -0.113 | silmitasertib 0.056 | [9] -0.052 | [11] -0.074

POLB (UniProt P06746)
inactive: [1] -0.081 | nilotinib -0.103 | [2] -0.134 | dasatinib -0.04 | [3] 0.009 | [4] 0.143 | [5] -0.133 | tipifarnib 0.043 | [6] -0.103 | entinostat 0.107 | vorinostat -0.106 | citarinostat 0.189 | [9] 0.113 | [11] -0.026

PLEKHJ1 (UniProt Q9NW61)
inactive: dasatinib -0.14 | [4] 0.037 | [5] -0.028 | tipifarnib -0.136 | [9] 0.133

PLIN3 isoform 2 (UniProt O60664)
inactive: bafetinib -0.401 | tipifarnib 0.067 | mubritinib -0.036 | [6] -0.402 | [10] -0.308 | [7] -0.271 | entinostat -0.191 | citarinostat -0.206 | silmitasertib 0.297 | [9] -0.516 | [11] -0.068

POLRMT (UniProt O00411)
inactive: dasatinib 0.063 | [6] 0.011 | [8] 0.05 | entinostat -0.147 | [9] -0.093

POLR3GL (UniProt Q9BT43)
inactive: bafetinib -0.064 | mubritinib 0.133 | [6] -0.106 | [7] -0.099 | entinostat -0.023 | silmitasertib -0.06

PNKP (UniProt Q96T60)
inactive: [1] -0.517 | dasatinib -0.219 | [4] -0.083 | [5] 0.105 | tipifarnib 0.066 | [6] -0.148 | [10] 0.138 | [8] -0.077 | entinostat 0.057 | vorinostat -0.333 | citarinostat 0.078 | [11] 0.198

POC1A (UniProt Q8NBT0)
inactive: bafetinib 0.121 | dasatinib 0.055 | [4] -0.117 | mubritinib 0.124 | [10] 0.055 | [7] -0.103 | [8] 0.121 | citarinostat -0.081 | silmitasertib 0.207 | [11] -0.607

PMS2CL (UniProt Q68D20)
inactive: nilotinib -0.189 | [2] -0.154 | [3] 0.115 | [5] -0.128 | mubritinib -0.054 | [7] 0.185 | silmitasertib 0.095 | [9] 0.062

PLTP (UniProt P55058)
inactive: [1] -0.253 | nilotinib -0.053 | [2] 0.094 | dasatinib 0.02 | [3] -0.048 | [4] -0.254 | tipifarnib 0.159 | mubritinib -0.088 | [6] 0.14 | [7] -0.027 | [8] 0.026 | entinostat -0.19 | vorinostat 0.041 | citarinostat 0.009 | silmitasertib 0.1 | [9] 0.074 | [11] -0.138

PLS3 (UniProt H7C4N2)
inactive: [6] -0.183 | entinostat -0.107 | [9] -0.513

Quoted from above (two entries):
PNKP (UniProt Q96T60)
inactive: [1] -0.517 | dasatinib -0.219 | [4] -0.083 | [5] 0.105 | tipifarnib 0.066 | [6] -0.148 | [10] 0.138 | [8] -0.077 | entinostat 0.057 | vorinostat -0.333 | citarinostat 0.078 | [11] 0.198

POC1A (UniProt Q8NBT0)
inactive: bafetinib 0.121 | dasatinib 0.055 | [4] -0.117 | mubritinib 0.124 | [10] 0.055 | [7] -0.103 | [8] 0.121 | citarinostat -0.081 | silmitasertib 0.207 | [11] -0.607

Additional entries follow.

PORCN (UniProt Q9H237)
inactive: [4] -0.099 | [5] 0.347 | [8] -0.11

PPHLN1 isoform 3 (UniProt Q8NEY8)
inactive: [4] -0.117
